In PubChem BioAssay AID1347423 (Functional Genomics Laboratory (NCATS/FGL), 2020):
Hit rate of the full screen: of about 52,000 sequences, about 210 (0.4%) were called active.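 Rule for the calls: active = gene whose silencing raises cell survival under the drug, median off-target-corrected z-score across its silencing RNAs 2 or more; inactive = the rest.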 Some of the results follow.

experiment: Resistance to Poly (ADP-Ribose) Polymerase inhibitor: Gene Identification via Genome-wide siRNA Screen; settings: mouse BRCA2 R2336H ES cells, olaparib, CellTiter-Glo viability; stronger effect = higher value
Method in brief: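 Mouse BRCA2 R2336H ES cells were reverse-transfected with siRNA (20 nM final), treated at 48 h with 500 nM olaparib, and read by CellTiter-Glo after 72 h. Scores: MAD-based z per siRNA, median per gene, seed off-target correction.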

| Sequence | z-score |
| --- | --- |
| GGCUUCAGAUUUCGAUAUGTT against Nfkb2 | inactive: -0.687 |
| GGCCAAGAUCACCAUCGUGTT against Cldn3 | inactive: 0.108 |
| GGCACCUUUGCCUUGACAUTT against Slc26a7 | inactive: -1.03 |
| ACCAGAACCAGACGCGUAATT against Cox6b2 | inactive: 0.372 |
| GGACUAUUUCUUCAAUCCCTT against 2310038K02Rik | inactive: 1.03 |
| GCACAUGUGACUAGAUUUATT against Cetn2 | inactive: 1.12 |
| GGCGAGCUGGACAGAUUUGTT against Nudt6 | inactive: -0.315 |
| GGCCUUCCUGCUCAAGUUUTT against AU040576 | inactive: 0.588 |
| GCAAGUACGCUGCUCUGUCTT against Eif4b | inactive: 1.64 |
| GGAACAAAGAGAAGUGCAGTT against Ecm1 | inactive: 0.0067 |
| CGGUAACUAUGCAAAUUCATT against Ckap4 | inactive: -0.0349 |
| GGAUAUCACUGAAGAGAGCTT against 4733401H18Rik | inactive: -0.192 |
| CCUCGUAUUAUCAUGUGAATT against Gmppb | inactive: -0.288 |
| GGUCACCUGGUGUCAAUACTT against Reg2 | inactive: -2.93 |
| GGGCAUAUUUGGAAUCUGATT against Rtn4 | inactive: 0.632 |
| GGAAGAGAGGGUGAAUAUGTT against D7Ertd743e | inactive: 0.716 |
| GUACAUGUCGAUGGCAGUCTT against Fthl17 | inactive: -0.574 |
| CCUGAAUGACAACUAUAUCTT against Glt8d2 | inactive: 0.85 |
| GGGACAUGAAGAAAAUGGATT against Abcf2 | inactive: 0.297 |
| CCAACUAUGCCAUCAAUAATT against 1700111A04Rik | inactive: 0.364 |
| GGUUAAUGGGAAACUCUGCTT against Pias3 | active: 2.89 |
| GGAAGAUUCAUUCCAAAGATT against A430090L17Rik | inactive: 0.239 |

| Sequence | z-score |
| --- | --- |
| GCUGAUUGCUUCACCUCAUTT against Sall2 | inactive: -0.932 |
| CGUGCUGUUUGACGGAGUGTT against 1700027M21Rik | inactive: 0.336 |
| GCUAAUGAAGCAGAGCUGUTT against Olfr1359 | inactive: -0.0798 |
| GCUAACUGAAAGGUUCUUCTT against Eif3s6ip | inactive: 0.108 |
| GGAGCUUAUGCAUGAGUUUTT against Slc16a3 | inactive: 0.0878 |
| GCAAACGACGAAAGUCCAATT against C330046L10Rik | inactive: 0.564 |
| GGCAAAGGAUGAUUCGGCUTT against Tfam | inactive: -0.333 |
| GCUGAAUACGAUGAAGUCATT against ICRFP703B1614Q5.5 | inactive: 0.736 |
| CCAAGAGUCUAUAUCCGCUTT against Sardh | inactive: -0.392 |
| GGAAAUGGAAGAGCAAAUUTT against 1500002M01Rik | inactive: -2.77 |
| CCAAGCUACCAGGGUUUUUTT against Abcb9 | inactive: 0.967 |
| GCGACAGGAUGAGAAAGCATT against Ppm1f | inactive: 0.402 |
| GGAUGGCUUUCUGUCUUUCTT against Trappc1 | inactive: 0.428 |
| GGAAUCUCAUGACUCUACCTT against Mybpc2 | inactive: -0.161 |
| GCACCUGGAAAUAAAAUGCTT against Selenbp2 | inactive: 0.244 |
| GGUAGUGUCGGAUGUGCUATT against Mab21l2 | inactive: -1.39 |
| GGAUAACACUGUGAGAGUUTT against Il17f | inactive: 1.01 |
| GGACCAUUUACACAUUCAGTT against Kptn | inactive: -0.173 |
| GCCUAAGUUUGACUUAUAATT against Zc3hdc1 | inactive: -0.547 |
| GGCCUAAAUCUAAUCAAAGTT against D8Wsu49e | inactive: -0.559 |
| CCAAACCUAUUCUGAGAUGTT against 2310020F24Rik | inactive: -0.288 |
| GGAACACUGGUAACUGUAATT against Als2cr2 | inactive: 0.226 |

Three successive entries out of the list so far, quoted:

| Sequence | z-score |
| --- | --- |
| GCACCUGGAAAUAAAAUGCTT against Selenbp2 | inactive: 0.244 |
| GGUAGUGUCGGAUGUGCUATT against Mab21l2 | inactive: -1.39 |
| GGAUAACACUGUGAGAGUUTT against Il17f | inactive: 1.01 |

(cont.)

| Sequence | z-score |
| --- | --- |
| GCUCUGAAGCUGAUACUCATT against Rab3ip | inactive: 0.769 |
| GGUUUCUGCCAUCCAUCAGTT against Zfa | inactive: -0.71 |
| GGUUCCAUGUUGGAUAUCATT against Stk39 | inactive: 0.0941 |
| GGGUCCUCUGAAAGUUACCTT against Fndc5 | inactive: -0.0209 |
| GGACCAUUCUGAAGAGCAGTT against Il5ra | inactive: 0.967 |
| GCCUCCACAUAGCUUCAACTT against 1110030H02Rik | inactive: 1.14 |
| GGUCCGGGAGUAACUUUUCTT against Mafb | inactive: 0.362 |
| GGACGGCAGAAAGCAUUUATT against Olfr317 | inactive: -2.51 |
| GGAAAGGUAAUCCUGACUUTT against Asb17 | inactive: -0.415 |
| GGGCUUUACUGACUUCAAGTT against Hexa | inactive: -0.584 |
| CCACCGAAUUCGGAAAACATT against Siat7b | inactive: -0.637 |
| GGAGAUUCUGUGCAAUGCATT against Dnajc12 | inactive: 0.534 |
| GGUACAAUCCCAGAUUUGATT against Cspg6 | inactive: -2.2 |
| GGACAGAGUUACCUAGGCATT against 5730590G19Rik | inactive: -1.16 |
| GGGUGCAUUACCCAGAUAUTT against Olfr1353 | inactive: 0.599 |
| GGAAUAAUCCCAGAAUCAGTT against Stard6 | inactive: -0.775 |
| GGAUGCUAUGAGCAACUUUTT against Mc4r | inactive: -0.515 |
| GGAUGUCGAAGAAACAAAUTT against Ceacam12 | inactive: 1.8 |
| GGAAAGCUUAUUUUCUCUCTT against Ppp1r1c | inactive: 0.178 |
| GGAAAAGAAUUGUAUACAGTT against Gprk2l | inactive: 0.703 |
| GGGCAAGUAUGGCUAUGUGTT against 4632424B03Rik | inactive: -1.74 |
| GGAAAUUCACAAACAUGGATT against 2700085M18Rik | inactive: 0.305 |
